Experimental data as given in publication PMC5431093, “A HAND to TBX5 Explains the Link Between Thalidomide and Cardiac Diseases” (Scientific Reports, 2017).
Results are given in words; binding and its absence hold for the method and conditions named. For some of these results: In cells and extracts the contact can be indirect. Some binding calls cover weakened binding; strength is not graded here. For some of these results: Sequences can lack the tags named with a protein.

Sequences of proteins named here, by UniProt entry; tags and fusion partners are left off.
UniProt P46152: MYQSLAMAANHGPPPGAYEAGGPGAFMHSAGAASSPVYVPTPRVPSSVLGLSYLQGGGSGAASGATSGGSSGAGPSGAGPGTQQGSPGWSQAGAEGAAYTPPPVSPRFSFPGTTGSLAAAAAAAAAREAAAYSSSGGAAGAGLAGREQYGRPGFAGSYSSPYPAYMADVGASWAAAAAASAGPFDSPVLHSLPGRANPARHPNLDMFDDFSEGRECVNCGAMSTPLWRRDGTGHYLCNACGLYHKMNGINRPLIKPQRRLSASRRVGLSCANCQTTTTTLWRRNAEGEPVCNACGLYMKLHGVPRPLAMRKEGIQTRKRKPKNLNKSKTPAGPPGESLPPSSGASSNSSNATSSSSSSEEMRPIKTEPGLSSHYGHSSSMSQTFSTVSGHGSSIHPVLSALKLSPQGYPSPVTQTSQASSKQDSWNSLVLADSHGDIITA

T1: HA-tagged TBX5 (murine Tbx5 isoform A) (mouse, UniProt P70326 1-518)
T1 sequence (looked up): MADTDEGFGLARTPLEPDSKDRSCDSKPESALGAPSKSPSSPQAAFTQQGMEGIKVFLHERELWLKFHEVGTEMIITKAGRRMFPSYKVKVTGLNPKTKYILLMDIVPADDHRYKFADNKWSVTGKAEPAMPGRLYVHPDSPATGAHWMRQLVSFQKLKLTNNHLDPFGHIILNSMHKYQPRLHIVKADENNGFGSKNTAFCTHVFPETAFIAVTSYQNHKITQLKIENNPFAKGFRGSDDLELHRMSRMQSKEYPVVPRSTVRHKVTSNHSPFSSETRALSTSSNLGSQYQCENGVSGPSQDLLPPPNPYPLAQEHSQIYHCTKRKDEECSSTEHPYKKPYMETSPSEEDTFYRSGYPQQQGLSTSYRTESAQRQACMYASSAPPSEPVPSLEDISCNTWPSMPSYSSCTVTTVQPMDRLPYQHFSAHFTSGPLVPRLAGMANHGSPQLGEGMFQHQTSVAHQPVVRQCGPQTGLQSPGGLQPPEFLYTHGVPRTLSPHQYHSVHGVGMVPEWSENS

T2: E47/Pan protein (UniProt P15923)
T2 sequence: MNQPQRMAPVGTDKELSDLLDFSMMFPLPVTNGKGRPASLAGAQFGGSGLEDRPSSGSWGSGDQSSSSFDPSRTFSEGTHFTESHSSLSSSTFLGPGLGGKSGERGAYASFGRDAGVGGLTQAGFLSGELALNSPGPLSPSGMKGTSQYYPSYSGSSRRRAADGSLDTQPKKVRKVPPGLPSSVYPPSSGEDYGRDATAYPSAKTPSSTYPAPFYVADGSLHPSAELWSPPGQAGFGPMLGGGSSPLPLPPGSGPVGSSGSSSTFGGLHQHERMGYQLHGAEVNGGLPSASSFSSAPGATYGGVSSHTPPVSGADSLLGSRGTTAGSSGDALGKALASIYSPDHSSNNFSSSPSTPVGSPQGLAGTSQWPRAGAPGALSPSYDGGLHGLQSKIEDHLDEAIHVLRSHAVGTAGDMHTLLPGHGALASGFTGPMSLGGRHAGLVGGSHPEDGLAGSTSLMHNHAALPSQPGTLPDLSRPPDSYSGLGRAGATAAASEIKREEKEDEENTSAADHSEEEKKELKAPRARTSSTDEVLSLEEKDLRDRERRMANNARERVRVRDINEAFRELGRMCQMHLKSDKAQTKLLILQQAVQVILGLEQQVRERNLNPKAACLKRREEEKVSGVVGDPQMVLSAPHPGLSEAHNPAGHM


Key:
[1] = molecular target: T1, HA-tagged TBX5 (murine Tbx5 isoform A); assay: co-IP; as a1 but the extracts incubated with thalidomide (4 uM by the legends; 200 mg by the methods)
[2] = molecular target: T1, HA-tagged TBX5 (murine Tbx5 isoform A); assay: co-IP; nuclear extracts of separately transfected HEK293 cells mixed (100 ug each), anti-HA on Protein A/G Dynabeads, 2 h, alone or with DMSO; blot with anti-Flag, re-blot with anti-HA
E47/Pan protein = molecular target: T2, E47/Pan protein; assay: native gel or EMSA; nuclear extracts of HEK293 cells with HAND2 (wild type or G202V) mixed with the same amount of E47/Pan extract, radiolabelled consensus HAND binding site probe; complex seen on DNA

Row | binding [1] | binding [2] | binding (E47/Pan protein) | Molecule
1 | binds | binds | – | Flag-tagged GATA4 (from UniProt P46152 1-440)
2 | – | binds | binds | Flag-tagged HAND2 wild type (natural protein, mouse, UniProt Q61039 1-217, looked up) MSLVGGFPHHPVVHHEGYPFAAAAAAAAAAAASRCSHEENPYFHGWLIGHPEMSPPDYSMALSYSPEYASGAAGLDHSHYGGVPPGAGPPGLGGPRPVKRRGTANRKERRRTQSINSAFAELRECIPNVPADTKLSKIKTLRLATSYIAYLMDLLAKDDQNGEAEAFKAEIKKTDVKEEKRKKELNEILKSTVSSNDKKTKGRTGWPQHVWALELKQ
